No constants are given. Whether binding was seen depends on the method and setting. In cells and extracts the contact can be indirect. These calls come from enrichment with a bait or labelling near it, and not all partners need be listed.
biological target: CXCR2 stably over-expressed in differentiated HL-60 cells (UniProt P25025); assay: affinity purification with mass spectrometry; anti-CXCR2 rabbit antibody coupled to Sepharose; lysates of differentiated HL-60 cells stably expressing CXCR2, vehicle or 100 ng/ml CXCL8 for 1 min; lysis buffer 50 mM Tris-HCl pH 7.5, 0.05% Triton X-100, 300 mM NaCl; normal rabbit IgG beads as mock, its identifications subtracted; LC/MS/MS

Chains of the proteins cited; added tags and fusions are not shown.
UniProt P25025: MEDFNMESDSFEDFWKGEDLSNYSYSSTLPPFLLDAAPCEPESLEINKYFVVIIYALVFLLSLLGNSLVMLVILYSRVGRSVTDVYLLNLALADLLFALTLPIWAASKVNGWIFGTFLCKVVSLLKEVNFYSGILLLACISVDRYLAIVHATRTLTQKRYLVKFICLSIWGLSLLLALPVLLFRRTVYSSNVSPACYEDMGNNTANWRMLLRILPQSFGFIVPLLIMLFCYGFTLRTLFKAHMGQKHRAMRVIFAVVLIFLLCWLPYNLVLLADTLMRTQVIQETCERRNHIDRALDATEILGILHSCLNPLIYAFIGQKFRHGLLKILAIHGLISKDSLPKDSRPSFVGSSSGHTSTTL

Binder | binding
Annexin 1 (protein, UniProt P04083 1-346) MAMVSEFLKQAWFIENEEQEYVQTVKSSKGGPGSAVSPYPTFNPSSDVAALHKAIMVKGVDEATIIDILTKRNNAQRQQIKAAYLQETGKPLDETLKKALTGHLEEVVLALLKTPAQFDADELRAAMKGLGTDEDTLIEILASRTNKEIRDINRVYREELKRDLAKDITSDTSGDFRNALLSLAKGDRSEDFGVNEDLADSDARALYEAGERRKGTDVNVFNTILTTRSYPQLRRVFQKYTKYSKHDMNKVLDLELKGDIEKCLTAIVKCATSKPAFFAEKLHQAMKGVGTRHKALIRIMVSRSEIDMNDIKAFYQKMYGISLCQAILDETKGDYEKILVALCGGN | binds
Secretory carrier membrane protein 2 (SCAMP2) (protein, UniProt O15127 1-329) MSAFDTNPFADPVDVNPFQDPSVTQLTNAPQGGLAEFNPFSETNAATTVPVTQLPGSSQPAVLQPSVEPTQPTPQAVVSAAQAGLLRQQEELDRKAAELERKERELQNTVANLHVRQNNWPPLPSWCPVKPCFYQDFSTEIPADYQRICKMLYYLWMLHSVTLFLNLLACLAWFSGNSSKGVDFGLSILWFLIFTPCAFLCWYRPIYKAFRSDNSFSFFVFFFVFFCQIGIYIIQLVGIPGLGDSGWIAALSTLDNHSLAISVIMMVVAGFFTLCAVLSVFLLQRVHSLYRRTGASFQQAQEEFSQGIFSSRTFHRAASSAAQGAFQGN | binds
14-3-3 gamma (protein, UniProt P61981 1-247) MVDREQLVQKARLAEQAERYDDMAAAMKNVTELNEPLSNEERNLLSVAYKNVVGARRSSWRVISSIEQKTSADGNEKKIEMVRAYREKIEKELEAVCQDVLSLLDNYLIKNCSETQYESKVFYLKMKGDYYRYLAEVATGEKRATVVESSEKAYSEAHEISKEHMQPTHPIRLGLALNYSVFYYEIQNAPEQACHLAKTAFDDAIAELDTLNEDSYKDSTLIMQLLRDNLTLWTSDQQDDDGGEGNN | binds
Hsp 75 (protein, UniProt Q12931 60-704) STQTAEDKEEPLHSIISSTESVQGSTSKHEFQAETKKLLDIVARSLYSEKEVFIRELISNASDALEKLRHKLVSDGQALPEMEIHLQTNAEKGTITIQDTGIGMTQEELVSNLGTIARSGSKAFLDALQNQAEASSKIIGQFGVGFYSAFMVADRVEVYSRSAAPGSLGYQWLSDGSGVFEIAEASGVRTGTKIIIHLKSDCKEFSSEARVRDVVTKYSNFVSFPLYLNGRRMNTLQAIWMMDPKDVREWQHEEFYRYVAQAHDKPRYTLHYKTDAPLNIRSIFYVPDMKPSMFDVSRELGSSVALYSRKVLIQTKATDILPKWLRFIRGVVDSEDIPLNLSRELLQESALIRKLRDVLQQRLIKFFIDQSKKDAEKYAKFFEDYGLFMREGIVTATEQEVKEDIAKLLRYESSALPSGQLTSLSEYASRMRAGTRNIYYLCAPNRHLAEHSPYYEAMKKKDTEVLFCFEQFDELTLLHLREFDKKKLISVETDIVVDHYKEEKFEDRSPAAECLSEKETEELMAWMRNVLGSRVTNVKVTLRLDTHPAMVTVLEMGAARHFLRMQQLAKTQEERAQLLQPTLEINPRHALIKKLNQLRASEPGLAQLLVDQIYENAMIAAGLVDDPRAMVGRLNELLVKALERH | binds
LIM and SH3 domain protein 1 (LASP-1) (protein, UniProt Q14847 1-261) MNPNCARCGKIVYPTEKVNCLDKFWHKACFHCETCKMTLNMKNYKGYEKKPYCNAHYPKQSFTMVADTPENLRLKQQSELQSQVRYKEEFEKNKGKGFSVVADTPELQRIKKTQDQISNIKYHEEFEKSRMGPSGGEGMEPERRDSQDGSSYRRPLEQQQPHHIPTSAPVYQQPQQQPVAQSYGGYKEPAAPVSIQRSAPGGGGKRYRAVYDYSAADEDEVSFQDGDTIVNVQQIDDGWMYGTVERTGDTGMLPANYVEAI | binds
Nipsnap homolog 1 (protein, UniProt Q9BPW8 36-284) SKDNEGSWFRSLFVHKVDPRKDAHSTLLSKKETSNLYKIQFHNVKPEYLDAYNSLTEAVLPKLHLDEDYPCSLVGNWNTWYGEQDQAVHLWRFSGGYPALMDCMNKLKNNKEYLEFRRERSQMLLSRRNQLLLEFSFWNEPQPRMGPNIYELRTYKLKPGTMIEWGNNWARAIKYRQENQEAVGGFFSQIGELYVVHHLWAYKDLQSREETRNAAWRKRGWDENVYYTVPLVRHMESRIMIPLKISPLQ | binds

— publication PMC3158102
